These are yes or no findings as the source states them, for the method shown. Binding seen in cells or lysates may run through a third protein. Some entries that bind do so weakly or less than the wild type.

Protein sequences, listed by entry. Tags and fused reporters are not part of them.
UniProt O43809: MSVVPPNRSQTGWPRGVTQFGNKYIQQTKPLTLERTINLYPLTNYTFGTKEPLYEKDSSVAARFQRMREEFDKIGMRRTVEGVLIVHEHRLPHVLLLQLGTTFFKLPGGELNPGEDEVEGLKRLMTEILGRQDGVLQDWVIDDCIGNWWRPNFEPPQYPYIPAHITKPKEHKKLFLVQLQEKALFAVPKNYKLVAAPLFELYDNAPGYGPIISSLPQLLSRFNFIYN
UniProt Q16630: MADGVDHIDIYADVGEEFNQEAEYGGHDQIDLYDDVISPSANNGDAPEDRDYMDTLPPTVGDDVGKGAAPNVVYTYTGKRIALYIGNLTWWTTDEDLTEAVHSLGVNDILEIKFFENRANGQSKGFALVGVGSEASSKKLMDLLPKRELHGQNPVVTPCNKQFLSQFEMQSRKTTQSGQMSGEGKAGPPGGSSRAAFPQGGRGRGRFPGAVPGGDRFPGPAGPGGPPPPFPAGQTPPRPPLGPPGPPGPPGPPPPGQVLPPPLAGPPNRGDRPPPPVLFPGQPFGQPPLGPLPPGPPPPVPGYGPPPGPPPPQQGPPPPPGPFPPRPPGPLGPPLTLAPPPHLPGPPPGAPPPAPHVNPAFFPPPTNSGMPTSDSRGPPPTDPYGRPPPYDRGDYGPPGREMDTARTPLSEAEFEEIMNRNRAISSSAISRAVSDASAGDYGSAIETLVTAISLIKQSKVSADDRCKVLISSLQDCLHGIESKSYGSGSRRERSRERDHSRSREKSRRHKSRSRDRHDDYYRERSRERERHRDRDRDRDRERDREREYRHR

In this experiment the target is NUDT21 (human (endogenous in THP-1)) (UniProt O43809). Kind of experiment: co-IP.

For the substance CPSF6 (from UniProt Q16630 1-551), the binding entry was “binds”.

The record behind these values is PMC12081465.
